Values as published with doi:10.1371/journal.pone.0140310, rounded.

Every entry is a combination with ABT-263 at 2 µM: CC1(C)CCC(c2ccc(Cl)cc2)=C(CN2CCN(c3ccc(C(=O)NS(=O)(=O)c4ccc(N[C@H](CCN5CCOCC5)CSc5ccccc5)c(S(=O)(=O)C(F)(F)F)c4)cc3)CC2)C1

Drugs:
fludarabine, 1 µM: Nc1nc(F)nc2c1ncn2[C@@H]1O[C@H](CO)[C@@H](O)[C@@H]1O
lenalidomide, 5 µM: Nc1cccc2c1CN(C1CCC(=O)NC1=O)C2=O (stereo not shown)
SU6656, 2 µM: CN(C)S(=O)(=O)c1ccc2c(c1)/C(=C/c1cc3c([nH]1)CCCC3)C(=O)N2
XAV939, 10 µM: Oc1nc(-c2ccc(C(F)(F)F)cc2)nc2c1CSCC2
PD173074, 0.5 µM: CCN(CC)CCCCNc1ncc2cc(-c3cc(OC)cc(OC)c3)c(NC(=O)NC(C)(C)C)nc2n1
ENMD-2076, 0.2 µM: Cc1cc(Nc2cc(N3CCN(C)CC3)nc(/C=C/c3ccccc3)n2)n[nH]1
nilotinib, 1 µM: Cc1cn(-c2cc(NC(=O)c3ccc(C)c(Nc4nccc(-c5cccnc5)n4)c3)cc(C(F)(F)F)c2)cn1
BI-78D3, 1 µM: O=c1[nH]nc(Sc2ncc([N+](=O)[O-])s2)n1-c1ccc2c(c1)OCCO2
embelin, 6 µM: CCCCCCCCCCCC1=C(O)C(=O)C=C(O)C1=O
VX-702, 2 µM: NC(=O)c1ccc(N(C(N)=O)c2c(F)cccc2F)nc1-c1ccc(F)cc1F
sorafenib, 2 µM: CNC(=O)c1cc(Oc2ccc(NC(=O)Nc3ccc(Cl)c(C(F)(F)F)c3)cc2)ccn1
selumetinib, 0.075 µM: Cn1cnc2c(F)c(Nc3ccc(Br)cc3Cl)c(C(=O)NOCCO)cc21
palbociclib, 0.2 µM: CC(=O)c1c(C)c2cnc(Nc3ccc(N4CCNCC4)cn3)nc2n(C2CCCC2)c1=O
enzastaurin, 4 µM: Cn1cc(C2=C(c3cn(C4CCN(Cc5ccccn5)CC4)c4ccccc34)C(=O)NC2=O)c2ccccc21
GW9662, 10 µM: O=C(Nc1ccccc1)c1cc([N+](=O)[O-])ccc1Cl
Src-I1, 10 µM: COc1cc2ncnc(Nc3ccc(Oc4ccccc4)cc3)c2cc1OC
fingolimod, 10 µM: CCCCCCCCc1ccc(CCC(N)(CO)CO)cc1
JZL184, 5 µM: O=C(Oc1ccc([N+](=O)[O-])cc1)N1CCC(C(O)(c2ccc3c(c2)OCO3)c2ccc3c(c2)OCO3)CC1
stibogluconate, 10 µM: O=C(O)[C@@H]1[O][Sb](=[O])([O][Sb]2(=[O])[O][C@H]([C@H](O)CO)[C@H](O)[C@H](C(=O)O)[O]2)[O][C@H]([C@H](O)CO)[C@@H]1O (stereo partly shown)
darinaparsin, 2 µM: C[As](C)SC[C@H](NC(=O)CC[C@H](N)C(=O)O)C(=O)NCC(=O)O
STA-4783, 0.03 µM: CN(NC(=O)CC(=O)NN(C)C(=S)c1ccccc1)C(=S)c1ccccc1
MK-2206, 2 µM: NC1(c2ccc(-c3nc4ccn5c(=O)[nH]nc5c4cc3-c3ccccc3)cc2)CCC1
veliparib, 7 µM: C[C@]1(c2nc3c(C(N)=O)cccc3[nH]2)CCCN1
dovitinib, 0.5 µM: CN1CCN(c2ccc3nc(-c4c(N)c5c(F)cccc5[nH]c4=O)[nH]c3c2)CC1
KU-0063794, 0.1 µM: COc1ccc(-c2ccc3c(N4CCOCC4)nc(N4C[C@@H](C)O[C@@H](C)C4)nc3n2)cc1CO
lapatinib, 4 µM: CS(=O)(=O)CCNCc1ccc(-c2ccc3ncnc(Nc4ccc(OCc5cccc(F)c5)c(Cl)c4)c3c2)o1
tamatinib, 2 µM: COc1cc(Nc2ncc(F)c(Nc3ccc4c(n3)NC(=O)C(C)(C)O4)n2)cc(OC)c1OC
GW441756, 2 µM: Cn1cc(/C=C2\C(=O)Nc3cccnc32)c2ccccc21
BI-D1870, 1 µM: CC(C)CCN1c2nc(Nc3cc(F)c(O)c(F)c3)ncc2N(C)C(=O)C1C (stereo not shown)
L-779450, 1 µM: Oc1cc(-c2nc(-c3ccccc3)[nH]c2-c2ccncc2)ccc1Cl
tanespimycin, 0.01 µM: C=CCNC1=C2C[C@@H](C)C[C@H](OC)[C@H](O)[C@@H](C)/C=C(\C)[C@H](OC(N)=O)[C@@H](OC)/C=C\C=C(/C)C(=O)NC(=CC1=O)C2=O
perifosine, 2 µM: CCCCCCCCCCCCCCCCCCOP(=O)([O-])OC1CC[N+](C)(C)CC1
vismodegib, 5 µM: CS(=O)(=O)c1ccc(C(=O)Nc2ccc(Cl)c(-c3ccccn3)c2)c(Cl)c1
NVP-BEZ235, 0.02 µM: Cn1c(=O)n(-c2ccc(C(C)(C)C#N)cc2)c2c3cc(-c4cnc5ccccc5c4)ccc3ncc21
nutlin-3, 0.5 µM: COc1ccc(C2=N[C@@H](c3ccc(Cl)cc3)[C@@H](c3ccc(Cl)cc3)N2C(=O)N2CCNC(=O)C2)c(OC(C)C)c1
cisplatin, 8 µM: N.N.[Cl][Pt][Cl]

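The test systems are human melanoma cell lines, treated with a pair of drugs for 72 h and then stained and imaged. Each value is the cleaved-PARP-positive fraction of nuclei relative to DMSO-treated wells, in %, so that 100 equals the control and higher values mean more apoptosis. Concentrations were fixed for each drug; these are the higher of two levels. No replicate spread is given; individual values may be noisy. The marker varies much from line to line, for technical or biological reasons.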 Only some of the drugs and lines screened are listed, without regard to their results. A dash means that no value is listed here.

Second drug,SK-MEL-2,WM1745,SK-MEL-28,IPC-298,UACC-257,LB2518-MEL,IST-MEL1,WM3619,WM115,WM3526,MEL-HO,WM451Lu,A375,SK-MEL-5
BI-D1870,122,-,64.8,354,383,81.4,146,275,530,186,1470,394,101,61.7
Src-I1,105,-,481,196,603,69.6,470,185,475,649,181,249,179,674
MK-2206,220,1560,96.6,146,1790,191,120,111,1040,149,215,89.4,315,422
palbociclib,130,923,231,194,1200,84.2,191,148,271,117,381,133,216,295
tanespimycin,149,1400,404,158,2990,-,328,228,1150,425,57.1,293,293,309
fingolimod,17000,3250,-,30800,1300,3620,2940,5950,4390,3530,12300,3310,208,1560
tamatinib,192,1040,314,1310,2000,310,244,150,143,952,129,212,-,333
nilotinib,206,7710,879,61.7,986,248,155,124,274,324,77.6,207,176,225
JZL184,167,-,138,131,563,92.2,118,136,129,92.4,135,66.0,532,164
ENMD-2076,184,646,295,209,2760,149,116,171,492,421,133,155,388,105
dovitinib,585,658,511,749,1050,628,119,196,2630,334,179,44.0,599,897
stibogluconate,207,2080,649,277,2090,196,104,127,154,274,211,140,477,250
GW9662,145,-,913,212,2150,182,272,223,140,563,295,804,531,320
SU6656,113,1360,394,303,589,162,209,126,2480,468,169,319,-,34.5
fludarabine,15300,2040,-,353,2330,-,315,150,148,3680,223,131,244,2940
veliparib,378,5180,364,169,534,106,467,130,688,423,165,405,135,310
embelin,158,-,53.4,190,1930,34.9,220,101,206,155,363,107,176,207
selumetinib,376,1800,327,305,366,-,124,282,634,848,131,98.8,94.0,186
VX-702,263,1160,74.2,258,2650,298,178,117,209,238,63.6,138,307,236
KU-0063794,190,-,458,249,742,217,196,165,544,222,240,297,715,76.1
sorafenib,462,2260,333,254,823,353,64.5,237,897,1230,215,134,377,474
STA-4783,87.4,2460,341,174,681,1430,1270,2830,1910,616,140,208,-,233
vismodegib,122,2880,213,213,2740,268,199,109,313,304,132,200,302,366
nutlin-3,146,3870,426,161,1750,130,122,202,548,263,113,148,911,541
darinaparsin,305,2090,457,85.2,1270,219,185,114,525,210,176,347,194,245
cisplatin,461,2460,375,107,2890,480,94.6,135,583,550,58.6,172,364,474
lapatinib,296,1390,499,208,854,508,217,200,1170,335,216,332,656,272
BI-78D3,251,2740,158,89.1,3390,126,90.8,138,61.7,313,115,186,449,157
L-779450,907,-,227,98.8,496,505,140,162,1110,1530,137,4750,216,521
perifosine,280,2400,104,244,1010,123,213,135,697,243,112,128,254,127
NVP-BEZ235,367,2070,160,234,676,159,112,248,1800,251,183,134,199,332
PD173074,308,-,203,47.9,472,132,57.2,158,127,196,39.7,262,694,230
lenalidomide,195,1990,254,423,2100,-,143,121,132,339,67.7,70.8,719,197
XAV939,101,-,576,106,1160,43.4,358,199,121,141,202,222,440,184
GW441756,27.2,-,98.1,99.6,412,129,130,115,149,228,152,141,283,178
enzastaurin,1640,657,3270,811,2210,369,733,188,64.9,506,89.1,1060,213,279

The first 4 entries again:

| Second drug | SK-MEL-2 | WM1745 | SK-MEL-28 | IPC-298 | UACC-257 | LB2518-MEL | IST-MEL1 | WM3619 | WM115 | WM3526 | MEL-HO | WM451Lu | A375 | SK-MEL-5 |
|---|---|---|---|---|---|---|---|---|---|---|---|---|---|---|
| BI-D1870 | 122 | - | 64.8 | 354 | 383 | 81.4 | 146 | 275 | 530 | 186 | 1470 | 394 | 101 | 61.7 |
| Src-I1 | 105 | - | 481 | 196 | 603 | 69.6 | 470 | 185 | 475 | 649 | 181 | 249 | 179 | 674 |
| MK-2206 | 220 | 1560 | 96.6 | 146 | 1790 | 191 | 120 | 111 | 1040 | 149 | 215 | 89.4 | 315 | 422 |
| palbociclib | 130 | 923 | 231 | 194 | 1200 | 84.2 | 191 | 148 | 271 | 117 | 381 | 133 | 216 | 295 |